Measured values published in PMC4352044.
Where a chain is given by its changes, count along the chain named. Results are given in words; binding and its absence hold for the method and conditions named. Binding seen in cells or lysates may run through a third protein. Some results given as binding are weak or reduced against the parent protein; the word gives no strength. For some of these results: Where a sequence is shown, tags or fusion partners need not be part of it.

B1: Smc3 (protein, UniProt P47037 1-1230)
chain: MYIKRVIIKGFKTYRNETIIDNFSPHQNVIIGSNGSGKSNFFAAIRFVLSDDYSNLKREERQGLIHQGSGGSVMSASVEIVFHDPDHSMILPSGVLSRGDDEVTIRRTVGLKKDDYQLNDRNVTKGDIVRMLETAGFSMNNPYNIVPQGKIVALTNAKDKERLQLLEDVVGAKSFEVKLKASLKKMEETEQKKIQINKEMGELNSKLSEMEQERKELEKYNELERNRKIYQFTLYDRELNEVINQMERLDGDYNNTVYSSEQYIQELDKREDMIDQVSKKLSSIEASLKIKNATDLQQAKLRESEISQKLTNVNVKIKDVQQQIESNEEQRNLDSATLKEIKSIIEQRKQKLSKILPRYQELTKEEAMYKLQLASLQQKQRDLILKKGEYARFKSKDERDTWIHSEIEELKSSIQNLNELESQLQMDRTSLRKQYSAIDEEIEELIDSINGPDTKGQLEDFDSELIHLKQKLSESLDTRKELWRKEQKLQTVLETLLSDVNQNQRNVNETMSRSLANGIINVKEITEKLKISPESVFGTLGELIKVNDKYKTCAEVIGGNSLFHIVVDTEETATLIMNELYRMKGGRVTFIPLNRLSLDSDVKFPSNTTTQIQFTPLIKKIKYEPRFEKAVKHVFGKTIVVKDLGQGLKLAKKHKLNAITLDGDRADKRGVLTGGYLDQHKRTRLESLKNLNESRSQHKKILEELDFVRNELNDIDTKIDQVNGNIRKVSNDRESVLTNIEVYRTSLNTKKNEKLILEESLNAIILKLEKLNTNRTFAQEKLNTFENDLLQEFDSELSKEEKERLESLTKEISAAHNKLNITSDALEGITTTIDSLNAELESKLIPQENDLESKMSEVGDAFIFGLQDELKELQLEKESVEKQHENAVLELGTVQREIESLIAEETNNKKLLEKANNQQRLLLKKLDNFQKSVEKTMIKKTTLVTRREELQQRIREIGLLPEDALVNDFSDITSDQLLQRLNDMNTEISGLKNVNKRAFENFKKFNERRKDLAERASELDESKDSIQDLIVKLKQQKVNAVDSTFQKVSENFEAVFERLVPRGTAKLIIHRKNDNANDHDESIDVDMDAESNESQNGKDSEIMYTGVSISVSFNSKQNEQLHVEQLSGGQKTVCAIALILAIQMVDPASFYLFDEIDAALDKQYRTAVATLLKELSKNAQFICTTFRTDMLQVADKFFRVKYENKISTVIEVNREEAIGFIRGSNKFAEV
B2: Scc2-3V5 (protein, UniProt Q04002 1-1493)
chain: MSYPGKDKNIPGRIIEALEDLPLSYLVPKDGLAALVNAPMRVSLPFDKTIFTSADDGRDVNINVLGTANSTTSSIKNEAEKERLVFKRPSNFTSSANSVDYVPTNFLEGLSPLAQSVLSTHKGLNDSINIEKKSEIVSRPEAKHKLESVTSNAGNLSFNDNSSNKKTKTSTGVTMTQANLAEQYLNDLKNILDIVGFDQNSAEIGNIEYWLQLPNKKFVLTTNCLTKLQMTIKNITDNPQLSNSIEITWLLRLLDVMVCNIKFSKSSLKMGLDDSMLRYIALLSTIVLFNIFLLGKNDSNLHRESYIMEPVNFLSDLIESLKILTIEYGSLKIEFDTFQEALELLPKYIRNGPFLDDNVTAKLVYIFSDLLMNNDIEATTNIQFQSFWDNVKRISSDILVSLFGSFDQQRGFIIEELLSHIEKLPTKRIQKKLRKVGNQNIYITDFTFTLMSMLENINCYSFCNQMKDIAPENIDLLKNEYKKQEEFLFNIVEHINDTILERFFKNPSALRYVIDNFVQDLLLLISSPQWPVTEKILSSLLKRLLSVYSPSMQVSANIETICLQLIGNIGSTIFDIKCSTRDHEDNNLIKMINYPETLPHFFKSFEECIAYNETIKCRRSATRFLWNLRLGTILILEEYTKDAKEQIITVDNELKKILEQIKDGGLGPELENREADFSTIKLDYFSILHAFELLNLYDPYLKLILSLLAKDKIKLRSTAIKCLSMLASKDKVILSNPMVKETIHRRLNDSSASVKDAILDLVSINSSYFEFYQQINNNYNDDSIMVRKHVLRINEKMYDETNDIVTKVYVIARILMKIEDEEDNIIDMARLILLNRWILKVHEVLDQPEKLKEISSSVLLVMSRVAIMNEKCSQLFDLFLNFYLLNKEAHSKEAYDKITHVLTILTDFLVQKIVELNSDDTNEKNSIVDKQNFLNLLAKFADSTVSFLTKDHITALYPYMVSDEKSDFHYYILQVFRCTFEKLANFKQKFLYDLETTLLSRLPKMNVREIDEAMPLIWSVATHRHDTARVAKACSSCLSHLHPYINKANNEEAAIVVDGKLQRLIYLSTGFARFCFPKPSNDKIAFLQEGETLYEHITKCLLVLSKDKITHVIRRVAVKNLTKLCGNHPKLFNSRHVLHLLDKEFQSDQLDIKLVILESLYDLFLLEERKSVRNTGVNSTLSSNSILKKKLLKTNRVEFANDGVCSALATRFLDNILQLCLLRDLKNSLVAIRLLKLILKFGYTNPSHSIPTVIALFASTSQYIRHVAYELLEDLFEKYETLVFSSLSRGVTKAIHYSIHTDEKYYYKHDHFLSLLEKLCGTGKKNGPKFFKVLKRIMQSYLDDITDLTSTNSSVQKSIFVLCTNISNITFVSQYDLVSLLKTIDLTTDRLKEVIMDEIGDNVSSLSVSEEKLSGIILIQLSLQDLGTYLLHLYGLRDDVLLLDIVEESELKNKQLPAKKPDISKFSAQLENIEQYSSNGKLLTYFRKHVKDT
B3: Scc2-12Myc (protein, UniProt Q04002 1-1493)
chain: B2 chain

Tests used:
[1] = molecular target: T1, scc3-Y371A-6HA (budding yeast) (UniProt P40541); assay: co-IP; anti-HA immunoprecipitation of Scc3-6HA (wild type or mutant) from yeast lysates, mid-log cells; IPH150 or IPH50 buffer (50 mM Tris pH 8.0, 150/50 mM NaCl, 5 mM EDTA, 0.5% NP-40, 1 mM DTT), 4°C, protein A/G agarose, Western blot of partners; also in wpl1Δ strains and after depletion of Pds5-3V5-AID with 1 mM IAA
T1 sequence: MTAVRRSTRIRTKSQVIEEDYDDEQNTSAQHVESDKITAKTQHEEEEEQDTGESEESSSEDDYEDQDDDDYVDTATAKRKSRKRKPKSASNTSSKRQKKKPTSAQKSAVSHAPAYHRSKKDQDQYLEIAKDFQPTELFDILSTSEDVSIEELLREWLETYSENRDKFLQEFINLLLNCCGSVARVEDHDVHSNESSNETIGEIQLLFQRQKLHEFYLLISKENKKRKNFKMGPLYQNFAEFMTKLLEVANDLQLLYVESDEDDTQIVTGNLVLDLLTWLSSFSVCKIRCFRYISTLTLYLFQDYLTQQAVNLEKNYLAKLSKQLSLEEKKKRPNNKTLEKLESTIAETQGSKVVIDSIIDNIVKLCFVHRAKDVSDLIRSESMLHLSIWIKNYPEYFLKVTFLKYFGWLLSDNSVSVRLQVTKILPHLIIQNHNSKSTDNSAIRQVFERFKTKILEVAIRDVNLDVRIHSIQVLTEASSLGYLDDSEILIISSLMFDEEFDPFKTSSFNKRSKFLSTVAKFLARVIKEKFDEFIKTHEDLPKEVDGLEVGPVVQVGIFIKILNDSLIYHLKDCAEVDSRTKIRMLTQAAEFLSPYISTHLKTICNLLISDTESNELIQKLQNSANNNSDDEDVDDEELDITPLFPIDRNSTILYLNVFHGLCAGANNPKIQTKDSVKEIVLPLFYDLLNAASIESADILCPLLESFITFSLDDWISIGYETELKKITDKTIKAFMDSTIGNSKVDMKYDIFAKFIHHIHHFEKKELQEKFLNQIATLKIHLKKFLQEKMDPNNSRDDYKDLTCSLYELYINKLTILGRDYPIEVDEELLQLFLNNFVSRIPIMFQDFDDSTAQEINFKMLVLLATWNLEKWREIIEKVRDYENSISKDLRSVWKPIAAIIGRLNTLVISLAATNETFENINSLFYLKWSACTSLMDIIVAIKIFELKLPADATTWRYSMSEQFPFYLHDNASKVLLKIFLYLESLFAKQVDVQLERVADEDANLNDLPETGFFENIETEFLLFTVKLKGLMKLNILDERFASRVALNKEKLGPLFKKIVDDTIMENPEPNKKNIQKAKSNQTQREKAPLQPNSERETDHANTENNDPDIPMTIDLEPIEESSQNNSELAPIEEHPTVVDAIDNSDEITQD

Scc3-6HA (budding yeast) = molecular target: T2, Scc3-6HA (budding yeast) (UniProt P40541); assay: as above
T2 sequence: T1 sequence with A371Y

| Binder | binding [1] | binding (Scc3-6HA (budding yeast)) |
| --- | --- | --- |
| B1 | binds | binds |
| B2 | – | binds |
| B3 | – | binds |
